A short description of data set [1]: general procedure: Fmoc solid-phase peptide synthesis; DHP-HM resin; HATU/DIPEA (manual). Conditions: oxidative folding step.
Data set [2] is described as follows: general procedure: Fmoc solid-phase peptide synthesis; 2-chlorotrityl chloride resin; HATU/DIPEA (manual). Conditions: oxidative folding step.
Data set [3] in a line: general procedure: Fmoc solid-phase peptide synthesis; Rink Amide AM resin LL (0.40 mmol/g); 2-chlorotrityl chloride resin (1.5-1.9 mmol/g); DHP HM resin (1.17 mmol/g); HATU/DIPEA (manual). Conditions: conjugation step.

For “(1-azido-13-oxo-3,6,9-trioxa-12-azahexadecan-16-oyl)-phe-cyclo(Cys-Tyr-trp-Lys-Thr-Cys)-Thr(ol)”, in data set [1], the difficulty met result is “Cyclized peptide toc4 (X) was obtained a's a white solid. Low yield was accepted in favor of purity”.

Take “(1-azido-13-oxo-3,6,9-trioxa-12-azahexadecan-16-oyl)-phe-cyclo(Cys-Tyr-trp-Lys-Thr-Cys)-Thr-OH”: the difficulty met entry in data set [2] is on record as “Cyclized peptide tate2 (X) was obtained a's a white solid. Low yield was accepted in favor of purity”.

As for “(1-azido-13-oxo-3,6,9-trioxa-12-azahexadecan-16-oyl)-trp-cyclo(Cys-Thr-phe-Thr-Tyr-Cys)-Lys(ol)”, the difficulty met entry in data set [1] is on record as “Cyclized peptide toc6 (X) was obtained a's a white solid. Low yield was accepted in favor of purity”.

For XYSTEVVALSRLQ, the conjugation yield turned out to be 57% in data set [3] (run 1) and 60% in data set [3] (run 2).
